Assay results: patent US20210061908A1
No constants are given. Whether binding was seen depends on the method and setting. Some entries that bind do so weakly or less than the wild type.

Molecular target: T1, IGSF11-hFc (UniProt Q5DX21)
T1 sequence (looked up): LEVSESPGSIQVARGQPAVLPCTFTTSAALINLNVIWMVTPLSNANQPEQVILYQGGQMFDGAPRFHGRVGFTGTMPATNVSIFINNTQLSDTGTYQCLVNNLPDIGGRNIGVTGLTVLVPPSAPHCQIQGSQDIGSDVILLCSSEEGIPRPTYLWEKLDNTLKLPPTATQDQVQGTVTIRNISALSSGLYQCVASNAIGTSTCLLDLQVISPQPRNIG
Test: ELISA, coated IGSF11-hFc, IgG1 format; EC50 column; the cell uses '*' although the legend of this column uses '#'

B1: A-006 (human IgG1 format) (antibody, V domains shown)
VH: EVQLVESGGGLIQPGGSLRLSCAASGFTVSSNYMSWVRQAPGKGLEWVSVIYSGGSTYYADSVKGRFTISRDNSKNTLYLQMNSLRAEDTAVYYCARGNPYYYGDLQVNFDYWGQGTLVTVSS
VL: QAVVTQEPSLTVSPGGTVTLTCASSTGAVTSGYYPNWFQQKPGQAPRPLIYSTSNKHSWTPARFSGSLLGGKAALTLSGVQPDDEAEYYCLLYYGGDWVFGGGTKLTVL
binding: binds
